The full ranking holds about 33,000 sequences; the median of “E-score (-0.5 to 0.5)” is about -8e-05, and the highest 2% start at about 0.23. The list shows a part of the results.
Biological target: T1, Nrg2 (UniProt P38082)
T1 sequence: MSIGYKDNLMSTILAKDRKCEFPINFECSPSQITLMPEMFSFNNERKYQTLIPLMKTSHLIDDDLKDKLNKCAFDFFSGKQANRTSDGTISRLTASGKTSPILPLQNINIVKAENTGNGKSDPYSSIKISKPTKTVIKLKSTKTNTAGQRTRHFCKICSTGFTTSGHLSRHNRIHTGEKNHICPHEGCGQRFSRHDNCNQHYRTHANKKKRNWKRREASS
Experiment: PBM E-score (8-mer binding enrichment) (E-score (-0.5 to 0.5)); higher = stronger / more preferred TF binding
Conditions: protein concentration: 100 nM; construct: GST-full length
How it was run: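 For each ungapped eight-base word taken together with its reverse complement, the Universal PBM Analysis Suite assigned an E-score. Binding data came from GST-tagged yeast transcription factors, applied at about 100-200 nM, on universal all-10-mer Agilent arrays made double-stranded by primer extension. Fluorescent anti-GST marked bound protein, and scans were normalised with masliner.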

Point of comparison: ACGTCTAC, “PBM E-score” value -0.203. Against it:
- CGTGTCCC — higher, -0.104
- CATAAATG — higher, -0.0903
- AACTTACA — higher, -0.00732
- GCTAACGA — higher, 0.00599
- ACACCCAT — higher, 0.107
- CATCTTTC — higher, 0.0807
- GCGCTACA — higher, -0.0171
- AATGGCGT — higher, 0.0608
- AAATTCCC — higher, -0.0547
- AAATGTCC — higher, -0.181
- GGGGGATA — lower, -0.305
- AAGGCACG — higher, 0.184
- AAGTAAGA — higher, 0.0208
- AACAAGCG — higher, 0.147
- CCTTACAC — higher, -0.0485
- TACACAGA — higher, 0.0516
- TACCGAAA — higher, -0.0545
- AAGAAGCT — higher, -0.0615
- ATGCTTAG — higher, 0.0462
- CTTAGCGA — higher, -0.00987
- GCGTTGCC — higher, 0.117
- AGCGCCTG — higher, -0.1
- ACTTACAC — higher, -0.0439
- GACCATTA — higher, -0.084
- AATGAGTC — higher, 0.0517
- CAATGTCG — higher, 0.123
- GGACGCCA — higher, -0.149
- CATAGGGG — higher, 0.138
- GCCGACCA — higher, -0.0502
- AGACTACT — higher, 0.0253
- ACAAATGA — higher, 0.0346
- AGGTAAGG — higher, 0.0256
- CGAGCCGC — higher, 0.0171
- ATCCTAAC — higher, 0.132
- AGAGACAA — higher, -0.0415
- TGAGCTAA — higher, -0.115
- CAAACTCC — higher, 0.0622
- GATAGGCA — higher, 0.00785
- GGAGCTAA — higher, -0.14
- AACATGGT — higher, -0.0362
- TATGAAAA — higher, 0.106
- GAACTGGA — higher, 0.161
- ATGGTCAG — higher, 0.22
- CGCGTGAA — higher, 0.113
- AGGATTAA — higher, 0.0186
- GACTTGAC — higher, -0.199
- CCCTGTCC — higher, 0.0104
- AATGAAGC — higher, -0.0531
- CCGTCTTA — lower, -0.209
- CGAATGTA — higher, -0.0454
- AATCGCTG — higher, 0.0248
- ATGTAATC — higher, -0.038
- AATCCCCC — lower, -0.367
- GCGGCAAA — higher, 0.0297
- CTGCAAAC — higher, -0.115
- CGCCATTA — higher, 0.0563
- CAGCAAGA — higher, 0.135
- CAATATTA — higher, 0.154
- CTCCTAAA — lower, -0.27
- TAGGAAAA — higher, -0.00822
- ACCGCTTA — higher, -0.143
- AAGCTCGG — higher, 0.0866
- AGAGCTGA — higher, 0.00384
- AGAGATTG — higher, 0.108
- ATTGTTCC — higher, 0.0549
- AGTCGGCA — higher, -0.0423
- GCGCAGCC — higher, -0.155
- AGGCGGAG — higher, 0.0503
- AACGGAGC — higher, -0.122
- CCCCGTAC — higher, -0.0792
- GGCTGCCA — higher, -0.173
- AAGTCACT — higher, -0.0972
- CACACGTC — higher, -0.119
- CAGATGTC — higher, -0.0913
- ACTCCCGG — higher, -0.0764
- CCTCCCTA — lower, -0.208
- CTCAGCTC — higher, -0.0635
- GATGGAGA — higher, -0.0382
- ATGACAGC — higher, 0.0799
- GAGGAAGC — higher, -0.081
- CTCGATCC — higher, -0.0858
- CTTTAAGC — higher, 0.0711
- ACGGGGCC — higher, 0.0169
- CTCTACCC — higher, 0.0309
- GGGAACAC — higher, 0.00396
- AAGATCTC — higher, -0.167
- CGACCAAC — higher, -0.0659
- AATACTAG — higher, 0.241
- AGACACCG — higher, -0.0381
- TCATCAGA — higher, 0.0269
- ACCCATGC — higher, -0.0641
- GGTGGTAC — higher, -0.202
- AACCAACG — higher, -0.0329
- TATTTCGA — higher, 0.183
- GGTGAGTA — higher, -0.041
- AGCAGCGC — higher, 0.08
- CAAAACCC — higher, 0.222
- AGTAGCAA — higher, 0.102
- CACTCATC — higher, 0.0506
- CCAGCGTC — higher, -0.143
- AGACCCAA — higher, -0.00312
- CGCGCCAC — higher, 0.131
- GTGCGAAA — higher, -0.0208
- GTGGAAAA — higher, 0.0167
- AGACCACG — higher, -0.159
- AAACAAGA — higher, 0.0965
- AGGACTTC — higher, -0.139
- GTCACTGA — higher, 0.0637
- CATCTTCG — higher, 0.0326
- ACATGCCT — higher, -0.16
- ATTTCACA — higher, 0.118
- TATTGTCA — higher, 0.172
- ATTCTGAG — higher, -0.0119
- ACCGCCGA — higher, -0.0213
- CTTACAAA — higher, -0.053
- CGCGATCC — higher, 0.13
- GAGATCCA — higher, 0.117
- GACAATGC — higher, 0.131
- TAGTTATA — higher, 0.074
- ACACGAAA — higher, 0.121
- GTCAATTA — higher, -0.0941
- ACGGTGCG — higher, 0.0486
- AGAGATTC — higher, 0.0502
- GGCAACAA — higher, 0.105
- AGATCTGG — higher, -0.109
- AATTCCGA — higher, 0.193
- GTGGGCAA — higher, -0.0781
- AAGTCGCC — higher, -0.161
- CAGGCAAA — higher, 0.00804
- ACCCCACG — higher, -0.0135
- ATCGGAAC — higher, 0.139
- CCTGGACC — higher, 0.0897
- GCGCTAAC — higher, -0.0647
- CCAGAGCG — higher, -0.164
- AAATCCCC — higher, -0.0879
- ATGCTCGC — higher, 0.0413
- AGCCTGAA — higher, -0.0391
- CTAACTAA — higher, -0.0143
- AACTTGGC — higher, -0.0216
- ACCATTGG — higher, 0.0751
- ACTCCCTC — lower, -0.249
- ACTGACGG — higher, -0.161
- GACGCATA — higher, 0.124
- ACACACTC — higher, 0.114
- AACGCCTA — higher, -0.0314
- CATGAATA — higher, -0.151
- AAGTGTGG — higher, -0.0298
- CATCGACA — higher, -0.0342
- ATCACACA — higher, 0.171
- ACCCCGAG — higher, -0.0836
- CGGGAACG — higher, -0.128
- GGAGCGGA — higher, 0.0266
- AGTCCTCG — higher, -0.0433
- AGGCCTGC — higher, -0.0378
- ATAGTAAA — higher, 0.203
- TGATCAAA — higher, 0.0524
- CAACCCGG — higher, -0.0791
- GAAATAGC — higher, 0.0102
- CTGCGGCA — lower, -0.208
- CGTTACCC — higher, -0.108
- CCAGTCAC — lower, -0.262
- AACCGCCA — higher, -0.104
- GTTTCAGA — higher, -0.0172
- GACGTACA — higher, -0.0211
- AGAGAGTC — higher, -0.138
- AGCGAGCC — higher, -0.0381
- ACCCAAGA — higher, -0.0784
- CCGTCGGC — lower, -0.226
- AAAATTGC — higher, -0.0548
- CAACTTGC — higher, 0.0266
- GTGGGAGA — higher, -0.161
